{"source": "PubChem BioAssay AID485298", "about": "(National Center for Advancing Translational Sciences (NCATS), 2010)", "note": "The campaign covered roughly 320,000 compounds. About 740 (0.23%) were called active. The inconclusive results got no clear call from the source; some entries with a clear call stand among them for comparison. Calls come from the whole dose curve; as a rule, active = well fitted activation curve with a large enough effect; inconclusive = small, poorly fitted or top-dose-only effect; inactive = no such curve, though single readings can be large or run the other way. Where the call is inconclusive, the potency comes from a doubtful curve fit. Potency is the fitted concentration of half-maximal effect."}
{"experiment": "qHTS Assay for Small Molecule Inhibitors of Mitochondrial Division or Activators of Mitochondrial Fusion; note: nearly all actives have a fitted effect of over 45% in size;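 for growth rescue (activation): temperature-sensitive fusion mutants such as fzo1-1 at 37 °C on non-fermentable ethanol glycerol medium; % of control where 0% means no effect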", "conditions": "S. cerevisiae fusion-defective mutant growth rescue, CellTiterGlo 48 h; growth rescue (activation): at 46.1 µM (top of the series) unless noted", "outline": "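Growth-rescue viability read-out: after 48 h at the non-permissive 37C in glycerol/ethanol YPEG, yeast mitochondrial fusion mutants are measured by CellTiterGlo luminescence; compounds (23 nl pinned per well) restoring growth score as division inhibitors or fusion activators.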"}
{"smiles": "Cc1ccc(S(=O)(=O)Cn2nnnc2C(c2ccccc2)N2CCN(c3ncccn3)CC2)cc1", "note": "(stereo not drawn)", "Potency": "inconclusive: 17.8 µM [activator, partial curve]"}
{"smiles": "Cc1ccc(C(=O)N/N=C(/CC(=O)c2cccs2)C(F)(F)F)cc1", "Potency": "inconclusive: 22.4 µM [activator, single point]"}
{"smiles": "Cc1cccc(/C=N/n2c(COc3ccccc3)n[nH]c2=S)c1", "growth rescue (activation)": "inactive: -7.06%"}
{"smiles": "O=c1cc(-c2ccco2)oc2ccc(Cl)cc12", "growth rescue (activation)": "inactive: -0.73%"}
{"smiles": "CCOC(=O)Cn1c(=O)n(Cc2ccco2)c(=O)c2ccc(C(=O)NC3CCCC3)cc21", "growth rescue (activation)": "inactive: -0.0083%"}
{"smiles": "C(=N\\Nc1nn[nH]n1)/c1ccccc1", "growth rescue (activation)": "inactive: -1.67%"}
{"smiles": "COc1ccc(NS(=O)(=O)c2cc(NC(=O)c3ccco3)ccc2N2CCCCC2)cc1", "Potency": "inconclusive: 15.8 µM [activator, single point]"}
{"smiles": "CC1=CC(=O)CC2C1(C)CCC(C)C2(C)CCC(C)CC(=O)O", "note": "(stereo not drawn)", "Potency": "inconclusive: 10 µM [activator, partial curve]"}
{"smiles": "Cc1c(C(=O)c2ccc(Cl)c(Cl)c2)cnc2cc3c(cc12)OCO3", "Potency": "inconclusive: 17.8 µM [activator, single point]"}
{"smiles": "COc1cc(C2C3=C(CCCC3=O)Nc3c2c(C)nn3-c2cccc(C)c2)cc(OC)c1O", "note": "(stereo not drawn)", "Potency": "inconclusive: 15.8 µM [activator, single point]"}
{"smiles": "COc1ccc(CCn2c(-c3ccco3)nc3nc4ccccc4nc32)cc1", "Potency": "inconclusive: 11.2 µM [activator, partial curve]"}
{"smiles": "O=C(OCC(=O)N1CCc2ccccc21)c1c2c(nc3ccccc13)CCCCC2", "Potency": "inconclusive: 31.6 µM [activator, single point]"}
{"smiles": "c1csc(C(c2nnnn2C2CCCCC2)N2CCN(c3nc4ccccc4s3)CC2)c1", "note": "(stereo not drawn)", "Potency": "inconclusive: 3.16 µM [activator, single point]"}
{"smiles": "Oc1ccccc1CN(Cc1ccco1)CC(O)COCc1ccc(Cl)cc1", "note": "(stereo not drawn)", "Potency": "inconclusive: 15.8 µM [activator, partial curve]"}
{"smiles": "COc1ccc(Nc2oc(COc3ccc(Cl)cc3)nc2C#N)cc1", "Potency": "inconclusive: 22.4 µM [activator, single point]"}
{"smiles": "CCc1ccc2c(c1)C(c1ccc(N3CCOCC3)cc1)=NNC(c1ccncc1)=N2", "Potency": "inconclusive: 28.2 µM [activator, partial curve]"}
{"smiles": "O=C(COc1ccccc1[N+](=O)[O-])N1CCC(Cc2ccccc2)CC1", "Potency": "inconclusive: 20 µM [activator, single point]"}
{"smiles": "Clc1ccc(C2=CSC3=Nc4cccc5cccc(c45)N23)cc1", "Potency": "inconclusive: 35.5 µM [activator, single point]"}
{"smiles": "Cc1ccccc1N1CCN(C2=NC(=O)/C(=C\\c3cccs3)S2)CC1", "Potency": "inconclusive: 20 µM [activator, single point]"}
{"smiles": "Cc1cccc(C)c1NC(=O)CN(C)C(=O)c1ccc(-c2cccc(C(F)(F)F)c2)o1", "Potency": "inconclusive: 35.5 µM [activator, single point]"}
{"smiles": "O=S(=O)(c1ccccc1F)N1CCN(CC(O)c2ccccc2)CC1", "note": "(stereo not drawn)", "Potency": "inconclusive: 31.6 µM [activator, single point]"}
{"smiles": "N#Cc1c(NC(=O)c2ccc(Cn3cc(Br)cn3)o2)sc2c1CCCCCC2", "Potency": "inconclusive: 10 µM [activator, partial curve]"}
{"smiles": "O=[N+]([O-])/C=C/c1cn(Cc2ccccc2)c2ccccc12", "growth rescue (activation)": "inactive: 1.97%"}
{"smiles": "O=c1c2ccccc2nc(SCc2cn3ccsc3n2)n1-c1ccccc1F", "Potency": "inconclusive: 35.5 µM [activator, partial curve]"}
{"smiles": "Fc1ccc(-c2noc(C3CCN(Cc4cccnc4)CC3)n2)cc1", "Potency": "inconclusive: 12.6 µM [activator, partial curve]"}
{"smiles": "Cc1ccc(C(=O)/C=C/c2ccco2)c(O)c1", "Potency": "inconclusive: 12.6 µM [activator, single point]"}
{"smiles": "Cc1ccc(NS(=O)(=O)c2cc(C(=O)NCCSC3CCCCC3)ccc2C)cc1", "Potency": "inconclusive: 10 µM [activator, partial curve]"}
{"smiles": "O=C(Nc1ccccc1O)c1ccc(NS(=O)(=O)c2cccc3cccnc23)cc1", "growth rescue (activation)": "inactive: 8.99%"}
{"smiles": "CCOC(=O)c1c(-c2ccccc2)csc1NC(=O)CCN1CCOCC1", "Potency": "active: 11.2 µM"}
{"smiles": "Clc1ccc(C2=Nn3c(nnc3-c3n[nH]c4c3CCC4)SC2)cc1Cl", "Potency": "inconclusive: 25.1 µM [activator, single point]"}
{"smiles": "COc1ccc(-c2nn(-c3ccccc3)cc2C(=O)N(C)CC(=O)Nc2cccc(F)c2)cc1", "Potency": "inconclusive: 20 µM [activator, single point]"}
{"smiles": "Cc1ccc(S(=O)(=O)NCc2ccc(C(=O)N3CCN(c4ccccc4)CC3)cc2)cc1", "Potency": "inconclusive: 35.5 µM [activator, partial curve]"}
{"smiles": "COC(=O)c1ccccc1CSc1nsc(C)c1C#N", "growth rescue (activation)": "inactive: 20.6%"}
{"smiles": "Cc1cccc(CCNC(=O)C2CCCN(c3cnccn3)C2)c1", "note": "(stereo not drawn)", "Potency": "inconclusive: 15.8 µM [activator, partial curve]"}
{"smiles": "CS(=O)(=O)N(Cc1ccccc1)c1ccccn1", "Potency": "inconclusive: 22.4 µM [activator, partial curve]"}
{"smiles": "CC1CC(C)CN(C(=O)C2CCN(S(=O)(=O)c3ccc4c(c3)CC(C)N4C(=O)C3CC3)CC2)C1", "note": "(stereo not drawn)", "Potency": "inconclusive: 0.316 µM [activator, full curve, poor fit]"}
{"smiles": "O=C(Nc1cccc(-c2nc3ccccc3s2)c1)c1cccs1", "Potency": "inconclusive: 12.6 µM [activator, partial curve]"}
{"smiles": "O=C(O)CSc1cn(Cc2ccccc2)c2ccccc12", "Potency": "inconclusive: 8.91 µM [activator, partial curve]"}
{"smiles": "CC(=O)CSc1nc2ccc(Nc3nc(N4CCOCC4)nc(N4CCOCC4)n3)cc2s1", "Potency": "inconclusive: 35.5 µM [activator, single point]"}
{"smiles": "CC(=O)Nc1ccc2nc(NC(=O)c3ccc([N+](=O)[O-])s3)sc2c1", "growth rescue (activation)": "inactive: -2.9%"}
{"smiles": "C/C=C(/C)C(=O)Nc1cccc(C2=NOC3(C2)C[C@H](C(N)=O)N(C(=O)c2ccc(Cl)cc2)C3)c1", "note": "(stereo partly drawn)", "Potency": "active: 14.1 µM"}
{"smiles": "c1ccc(CCc2nn3c(C4COc5ccccc5O4)nnc3s2)cc1", "note": "(stereo not drawn)", "growth rescue (activation)": "inactive: 18.5%"}
{"smiles": "COc1cc(Cl)c(C)cc1NC(=O)COC(=O)CCc1nc2ccccc2c(=O)[nH]1", "growth rescue (activation)": "inactive: 5.69%"}
{"smiles": "Cc1cccc2c1[nH]c1nc(N/N=C\\c3ccco3)nnc12", "growth rescue (activation)": "inactive: -2.66%"}
{"smiles": "O=P(C1=C(N2CCOCC2)/C(=C\\c2ccccc2)CC1)(N1CCOCC1)N1CCOCC1", "growth rescue (activation)": "inactive: -1.11%"}
{"smiles": "CC1(C)Cc2c(C#N)c(NCC3CCCO3)nc(-c3ccco3)c2CO1", "note": "(stereo not drawn)", "growth rescue (activation)": "inactive: 18.6%"}
{"smiles": "CN1C(=O)/C(=C/C=C2\\SCCN2C)SC1=S", "Potency": "inconclusive: 3.55 µM [activator, single point]"}
{"smiles": "CCOc1ccccc1C(=O)Nc1cc(Cl)ccc1O", "Potency": "inconclusive: 15.8 µM [activator, single point]"}
{"smiles": "COC(=O)CCS(=O)(=O)c1ccc(Cl)c(Cl)c1", "Potency": "inconclusive: 0.562 µM [activator, full curve, poor fit]"}
{"smiles": "CCOC(=O)N1CCN(C(=O)Nc2sc3nc4n(c(=O)c3c2C)CCC(C)CC4)CC1", "note": "(stereo not drawn)", "growth rescue (activation)": "inactive: 4.12%"}
{"smiles": "O=C1C(Cl)=C(N2CCOCC2)C(=O)N1c1ccc(Br)cc1", "growth rescue (activation)": "inactive: -1.59%"}
{"smiles": "Cn1cccc1C(=O)OCc1cc(Cl)cc2c1OCOC2", "Potency": "inconclusive: 35.5 µM [activator, single point]"}
{"smiles": "CC/C(=N\\n1nnnc1Nc1ccccc1)c1ccccc1", "Potency": "inconclusive: 14.1 µM [activator, single point]"}
{"smiles": "COCCCN(C(=O)CCSc1ccc(F)cc1)c1c(N)n(Cc2ccccc2)c(=O)[nH]c1=O", "growth rescue (activation)": "inactive: -4.88%"}
{"smiles": "COc1cc2c(cc1OC)C(c1ccccc1C(F)(F)F)CC(=O)N2", "note": "(stereo not drawn)", "growth rescue (activation)": "inactive: 1.96%"}
{"smiles": "CCOc1cc(C(N)=O)cc(Br)c1OCc1ccccc1", "Potency": "inconclusive: 11.2 µM [activator, partial curve]"}
{"smiles": "CCOC(=O)[C@H]1[C@H]2COc3ccc(Br)cc3[C@@H]2N2C(=O)c3ccc(C)cc3NC(=O)[C@@]12C", "Potency": "inconclusive: 12.6 µM [activator, partial curve]"}
{"smiles": "CCOC(=O)c1c(CN2CCN(c3ccccc3)CC2)oc2ccc(O)cc12", "Potency": "inconclusive: 11.2 µM [activator, partial curve]"}
{"smiles": "Nc1cc(S(=O)(=O)Nc2ccccc2Cl)ccc1N1CCOCC1", "Potency": "inconclusive: 31.6 µM [activator, single point]"}
{"smiles": "Cc1c(Cl)ccc2c1NC(=O)[C@]21[C@@H]2C(=O)N(Cc3ccccc3)C(=O)[C@@H]2[C@@H]2CCCN21", "Potency": "inconclusive: 12.6 µM [activator, partial curve]"}
{"smiles": "Cc1cc[n+](-c2ccccc2)c2ccccc12", "Potency": "inconclusive: 12.6 µM [activator, partial curve]"}
{"smiles": "CN(CC(=O)Nc1cccc(F)c1)C(=O)c1ccccc1CCc1ccccc1", "Potency": "inconclusive: 17.8 µM [activator, single point]"}
{"smiles": "COC(=O)[C@]1(CC(C)C)N[C@H](c2ccc(-c3ccc(Cl)c(Cl)c3)cc2)[C@@H]2C(=O)N(C)C(=O)[C@@H]21", "Potency": "inconclusive: 10 µM [activator, partial curve]"}
{"smiles": "NC(=O)C1CCN(C(=O)/C(=C/c2ccco2)NC(=O)c2ccccc2)CC1", "Potency": "inconclusive: 6.31 µM [activator, single point]"}
{"smiles": "COc1ccc(S(=O)(=O)NC(C)CCc2ccccc2)cc1", "note": "(stereo not drawn)", "Potency": "inconclusive: 17.8 µM [activator, single point]"}
{"smiles": "C=CCNC(=S)NCc1ccccc1OC", "growth rescue (activation)": "inactive: -7.03%"}
{"smiles": "Oc1ccccc1N1CCN(c2ncnc3scc(-c4ccc(F)cc4)c23)CC1", "Potency": "inconclusive: 0.355 µM [activator, partial curve, poor fit]"}
{"smiles": "CCOc1ccc2nc(Nc3nc4ccc(NC(C)=O)cc4s3)sc2c1", "Potency": "inconclusive: 20 µM [activator, single point]"}
